Assay results taken from article PMC4926073, “Absorption and Transport of Sea Cucumber Saponins from Apostichopus japonicus” (Marine Drugs, 2016).

Assay: in vitro
Conditions: human, Caco-2

Papp A→B at 150 min, 20 µM: 0.48 ± 0.07 ×10⁻⁶ cm/s
Compound: CC(C)NCC(O)COc1ccc(CC(N)=O)cc1 (stereo not shown) [atenolol, reference compound]
